Laboratory results as given in patent US8324172B2, “G protein coupled receptor agonists and antagonists and methods of activating and inhibiting G protein coupled receptors using the same” (Tufts Medical Center, Inc., priority 2000, dated 2012).
Some of these results come from one statement about several compounds together.

Amino acid sequences for entries named in this document (tags omitted). Residues count along the entry.
UniProt P43220, 24-463: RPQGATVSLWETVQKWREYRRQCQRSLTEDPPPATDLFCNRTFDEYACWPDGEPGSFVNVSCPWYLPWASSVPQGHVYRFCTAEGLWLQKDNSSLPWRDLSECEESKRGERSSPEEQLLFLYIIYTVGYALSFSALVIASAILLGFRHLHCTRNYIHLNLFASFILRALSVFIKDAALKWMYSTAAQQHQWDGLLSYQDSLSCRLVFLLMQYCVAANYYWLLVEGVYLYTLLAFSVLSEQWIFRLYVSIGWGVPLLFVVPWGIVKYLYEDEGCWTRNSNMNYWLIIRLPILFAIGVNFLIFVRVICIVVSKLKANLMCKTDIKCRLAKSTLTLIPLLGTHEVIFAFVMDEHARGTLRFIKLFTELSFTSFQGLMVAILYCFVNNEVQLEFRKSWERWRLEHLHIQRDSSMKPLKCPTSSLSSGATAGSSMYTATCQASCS

Target: GLP-1R (Homo sapiens, UniProt P43220)
Experiment: cAMP in Cos7 fibroblasts transfected with GLP-1R
Format: cell-based
Conditions: 10 μM pepducin; 1 nM GLP-1 peptide

Q: Which “inhibition of GLP-1R activity” value does the source give for “G1pal-15: pepducin based on the i3 loop of GLP-1R; peptide ANLMSKTDIKCRLAF (SEQ ID NO:35) (palmitoyl lipid) [Pepducin G1pal-15]” here?
A: 40-60%

Q: “G1pal-23: pepducin based on the i3 loop of GLP-1R; peptide SIVVSKLKANLMSKTDIKCRLAF (SEQ ID NO:36) (palmitoyl lipid) [Pepducin G1pal-23]” was tested. Which “inhibition of GLP-1R activity” value did it give?
A: 40-60%
